This assay addresses Aromatase (Homo sapiens) (UniProt P11511). The assay is described as follows: qHTS assay to identify aromatase inhibitors (AID 743083). Also: nearly all actives have a fitted effect of over 55% in size. Conditions: MCF-7 aro ERE, testosterone-driven ERE luciferase, 24 h. (In general: Quantitative high-throughput screening tests each substance at several concentrations.)

Amino acid sequences for entries named in this document (tags omitted). A change or cut given only in a name is not applied to a line headed by its entry.
UniProt P11511: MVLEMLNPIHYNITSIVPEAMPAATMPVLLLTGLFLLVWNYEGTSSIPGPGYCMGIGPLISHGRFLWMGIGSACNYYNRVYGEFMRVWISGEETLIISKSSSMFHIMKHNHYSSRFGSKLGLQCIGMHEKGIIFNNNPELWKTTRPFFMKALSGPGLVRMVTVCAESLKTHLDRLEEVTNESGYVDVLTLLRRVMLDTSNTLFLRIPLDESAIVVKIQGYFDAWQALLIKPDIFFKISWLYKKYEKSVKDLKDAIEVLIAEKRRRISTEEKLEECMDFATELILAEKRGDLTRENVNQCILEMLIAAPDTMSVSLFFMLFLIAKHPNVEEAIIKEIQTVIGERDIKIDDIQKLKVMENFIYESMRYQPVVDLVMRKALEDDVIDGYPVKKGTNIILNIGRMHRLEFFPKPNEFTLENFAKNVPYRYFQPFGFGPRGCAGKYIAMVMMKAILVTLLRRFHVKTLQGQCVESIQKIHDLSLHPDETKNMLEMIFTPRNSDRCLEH

This passage reports activity, negative = inhibition results from PubChem BioAssay (Tox21).

This list holds what a sample rich in hits left over. Inconclusive results are not listed. The source made the active and inactive calls. Calls follow the shape of the dose curve; as a rule, active = well fitted inhibition curve with a large enough effect in the repeat runs; inconclusive = weak or mixed curves; inactive = no such curve, though single readings can be large or run the other way.
% is scaled to controls: 0 for no effect and ±100 for the full control effect.

For the molecule `CN1C(=O)CN=C(c2ccccc2)c2cc(Cl)ccc21`, the activity, negative = inhibition is inactive: 37.7% (at 70.3 µM (top of the series)) and inactive: 20.6% (at 95 µM (top of the series)).
